No constants are given. Whether binding was seen depends on the method and setting. In cells and extracts the contact can be indirect. A yes stands for co-enrichment or nearness to the bait. Other partners may have been found. Sequences can lack the tags named with a protein.
Target: T1, HHLA2-HA (UniProt Q9UM44)
T1 sequence (chain, extensively glycosylated (smeared band on western blots); sites not stated): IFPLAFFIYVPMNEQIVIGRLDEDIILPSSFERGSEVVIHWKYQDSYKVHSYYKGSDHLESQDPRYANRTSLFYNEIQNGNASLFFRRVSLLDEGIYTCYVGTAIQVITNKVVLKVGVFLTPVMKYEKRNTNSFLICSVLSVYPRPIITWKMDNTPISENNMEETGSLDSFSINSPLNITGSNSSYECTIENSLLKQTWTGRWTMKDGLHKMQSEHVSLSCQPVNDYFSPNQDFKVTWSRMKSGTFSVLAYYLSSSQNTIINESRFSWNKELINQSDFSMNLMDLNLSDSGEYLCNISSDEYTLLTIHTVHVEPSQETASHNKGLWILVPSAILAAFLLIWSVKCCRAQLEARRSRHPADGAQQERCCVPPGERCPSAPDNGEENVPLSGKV
Assay: affinity purification with mass spectrometry

| Molecule | binding |
| --- | --- |
| c-Met (from UniProt P08581 25-1390) (receptor) | binds |
| STT3A (enzyme, UniProt P46977 1-705) MTKFGFLRLSYEKQDTLLKLLILSMAAVLSFSTRLFAVLRFESVIHEFDPYFNYRTTRFLAEEGFYKFHNWFDDRAWYPLGRIIGGTIYPGLMITSAAIYHVLHFFHITIDIRNVCVFLAPLFSSFTTIVTYHLTKELKDAGAGLLAAAMIAVVPGYISRSVAGSYDNEGIAIFCMLLTYYMWIKAVKTGSICWAAKCALAYFYMVSSWGGYVFLINLIPLHVLVLMLTGRFSHRIYVAYCTVYCLGTILSMQISFVGFQPVLSSEHMAAFGVFGLCQIHAFVDYLRSKLNPQQFEVLFRSVISLVGFVLLTVGALLMLTGKISPWTGRFYSLLDPSYAKNNIPIIASVSEHQPTTWSSYYFDLQLLVFMFPVGLYYCFSNLSDARIFIIMYGVTSMYFSAVMVRLMLVLAPVMCILSGIGVSQVLSTYMKNLDISRPDKKSKKQQDSTYPIKNEVASGMILVMAFFLITYTFHSTWVTSEAYSSPSIVLSARGGDGSRIIFDDFREAYYWLRHNTPEDAKVMSWWDYGYQITAMANRTILVDNNTWNNTHISRVGQAMASTEEKAYEIMRELDVSYVLVIFGGLTGYSSDDINKFLWMVRIGGSTDTGKHIKENDYYTPTGEFRVDREGSPVLLNCLMYKMCYYRFGQVYTEAKRPPGFDRVRNAEIGNKDFELDVLEEAYTTEHWLVRIYKVKDLDNRGLSRT | binds |

Reference: article doi:10.1101/2024.11.07.622557
